Data source: PubChem BioAssay AID1259405 (NCATS, 2018)

Test: 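Silenced genes that increase secreted GFP made by CHO cells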 (primary screen)
Cell system: Chinese hamster CHO-K1 ovary cells with stable secreted eGFP expression
Reagents: single siRNA against mouse genes, 0.8 pmol siRNA per well (2 µl of 400 nM stock)
Timing: 3 days
Read-out: 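Percent of the per-plate non-targeting control median for intracellular GFP per well by laser scanning cytometry and for cell viability by ATP luminescence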
Reading the numbers: GFP, % of control: higher = more GFP per well, higher productivity; viability (ATP), % of control: higher = more viable cells (more ATP)
Active means: 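Called active when intracellular GFP, relative to negative control, is at or above 120%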
Here is one part, drawn at random, of about 50,000 deposited reagents. About 4,000 of all reagents (8%) were called active. 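Mouse siRNA library applied to hamster cells; one well for each siRNA.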 A number with no mark means an inactive call. The numbers tell different reagents against one gene apart.

For Slc39a11 (GeneID 69806) #1 the deposit lists GFP, % of control 99.5; viability (ATP), % of control 125.
Slc39a11 (GeneID 69806) #2 scored GFP, % of control 86.4; viability (ATP), % of control 78.1.
For Slc39a11 (GeneID 69806) #3, the entry reads GFP, % of control 76.1; viability (ATP), % of control 81.3.
Knock-down of Tle2 (GeneID 21886) #1 resulted in: GFP, % of control 137 (active); viability (ATP), % of control 117.
Knock-down of Tle2 (GeneID 21886) #2 gave: GFP, % of control 89; viability (ATP), % of control 55.6.
Tle2 (GeneID 21886) #3 showed GFP, % of control 62.8; viability (ATP), % of control 64.4.
For Gga1 (GeneID 106039) #1 the deposit lists GFP, % of control 125 (active); viability (ATP), % of control 76.5.
Knock-down of Gga1 (GeneID 106039) #2 resulted in: GFP, % of control 92.4; viability (ATP), % of control 78.
Depletion of Gga1 (GeneID 106039) #3 gave: GFP, % of control 89.8; viability (ATP), % of control 89.6.
For Elavl3 (GeneID 15571) #1, the entry reads GFP, % of control 123 (active); viability (ATP), % of control 91.5.
Elavl3 (GeneID 15571) #2 showed GFP, % of control 79.7; viability (ATP), % of control 80.1.
For Elavl3 (GeneID 15571) #3, the values are GFP, % of control 83.2; viability (ATP), % of control 77.7.

No new results follow: an excerpt of the list.
Gga1 (GeneID 106039) #3: GFP, % of control = 89.8; viability (ATP), % of control = 89.6
Elavl3 (GeneID 15571) #1: GFP, % of control = 123 (active); viability (ATP), % of control = 91.5
Elavl3 (GeneID 15571) #2: GFP, % of control = 79.7; viability (ATP), % of control = 80.1

Continued.
After knock-down of Wdr36 (GeneID 225348) #1, the record shows GFP, % of control 69.2; viability (ATP), % of control 31.1.
Knock-down of Wdr36 (GeneID 225348) #2 gave: GFP, % of control 85.1; viability (ATP), % of control 59.4.
For Wdr36 (GeneID 225348) #3 the deposit lists GFP, % of control 119; viability (ATP), % of control 50.9.
For Ccdc7b (GeneID 75453) #1, the values are GFP, % of control 69.9; viability (ATP), % of control 97.7.
For Ccdc7b (GeneID 75453) #2, the values are GFP, % of control 54.5; viability (ATP), % of control 41.6.
With knock-down of Ccdc7b (GeneID 75453) #3, the screen gave GFP, % of control 45.3; viability (ATP), % of control 83.
